From the supplement of paper PMC12823440, “Inhibitors supercharge kinase turnover through native proteolytic circuits” (Nature, 2025)
Where a name gives a salt, the structure may show the parent alone. This is one part of the list. The calls rarely recur for the same compound in another form.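 Kinases were expressed as nanoluciferase fusions in K562 cells and luminescence was read every 4 h between 2 and 18 h as percent of control, DMSO set to 100% and a positive control to 0%. A time point counts as decreased when the signal drops significantly (2 sigma). The hit call is the authors' own, does not follow from the count of time points alone, and its rule is not shown.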

The chains behind the UniProt entries cited, without tags or fusion partners. Where a name states a change or a piece, a line headed by the entry shows the natural chain unless it says otherwise.
UniProt Q8IWU2: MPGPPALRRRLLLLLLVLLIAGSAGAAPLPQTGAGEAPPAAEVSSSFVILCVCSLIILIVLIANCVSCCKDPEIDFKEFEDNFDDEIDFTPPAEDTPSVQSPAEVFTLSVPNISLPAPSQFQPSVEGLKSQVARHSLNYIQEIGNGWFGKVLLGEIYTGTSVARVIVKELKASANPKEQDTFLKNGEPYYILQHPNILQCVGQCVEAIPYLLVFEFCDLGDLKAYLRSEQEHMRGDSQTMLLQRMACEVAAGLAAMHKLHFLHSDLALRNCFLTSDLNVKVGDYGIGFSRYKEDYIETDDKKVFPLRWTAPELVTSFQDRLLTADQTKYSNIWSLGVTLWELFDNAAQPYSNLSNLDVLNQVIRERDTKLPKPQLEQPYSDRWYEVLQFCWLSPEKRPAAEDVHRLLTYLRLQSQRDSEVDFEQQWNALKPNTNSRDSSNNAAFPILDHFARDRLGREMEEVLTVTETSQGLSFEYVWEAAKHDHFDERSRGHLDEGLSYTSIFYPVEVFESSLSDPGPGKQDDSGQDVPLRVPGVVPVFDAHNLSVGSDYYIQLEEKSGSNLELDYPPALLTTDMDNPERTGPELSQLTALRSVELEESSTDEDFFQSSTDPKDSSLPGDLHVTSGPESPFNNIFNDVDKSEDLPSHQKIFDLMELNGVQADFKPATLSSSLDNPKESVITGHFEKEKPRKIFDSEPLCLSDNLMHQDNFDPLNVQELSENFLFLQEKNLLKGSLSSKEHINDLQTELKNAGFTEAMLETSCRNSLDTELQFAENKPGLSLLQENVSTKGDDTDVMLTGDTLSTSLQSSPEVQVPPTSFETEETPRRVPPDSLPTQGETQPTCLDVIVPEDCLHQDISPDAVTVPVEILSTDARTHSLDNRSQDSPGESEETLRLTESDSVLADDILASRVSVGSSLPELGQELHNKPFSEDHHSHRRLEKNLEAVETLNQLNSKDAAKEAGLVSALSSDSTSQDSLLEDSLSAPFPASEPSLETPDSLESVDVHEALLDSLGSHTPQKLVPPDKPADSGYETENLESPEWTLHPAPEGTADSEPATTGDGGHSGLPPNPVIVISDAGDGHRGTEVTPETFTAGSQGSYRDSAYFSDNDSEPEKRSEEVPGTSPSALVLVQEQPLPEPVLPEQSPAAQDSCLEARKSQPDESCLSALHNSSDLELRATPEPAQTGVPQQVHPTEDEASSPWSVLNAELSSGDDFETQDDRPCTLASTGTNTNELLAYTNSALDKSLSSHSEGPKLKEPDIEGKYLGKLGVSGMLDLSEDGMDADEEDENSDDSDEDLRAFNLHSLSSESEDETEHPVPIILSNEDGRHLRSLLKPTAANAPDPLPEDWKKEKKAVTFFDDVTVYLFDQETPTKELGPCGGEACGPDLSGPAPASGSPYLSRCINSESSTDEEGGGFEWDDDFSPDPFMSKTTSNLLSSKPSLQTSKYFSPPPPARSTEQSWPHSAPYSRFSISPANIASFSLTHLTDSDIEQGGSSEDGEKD

biological target: LMTK2 (UniProt Q8IWU2); test: number of time points (of 5) at which kinase-Nluc abundance scored as decreased, DMSO-normalised (count); higher = more persistent destabilization; settings: K562; 2-18 h

Compound	number of time points
CN1C(=O)[C@@H](NC(=O)c2n[nH]c(Cc3ccccc3)n2)COc2ccccc21 (10 µM)	0
O=C1NC(=Nc2c(Cl)cccc2Cl)S/C1=C\c1ccc2nccnc2c1 (2.5 µM)	1
Cc1cccc(-c2[nH]c(C(C)(C)C)nc2-c2ccc3nccnc3c2)n1 (10 µM)	0
O=C(Nc1cccc(C(F)(F)F)c1)c1cccc2cc(Oc3cc(CO)ncn3)ccc12 (10 µM)	0
CNc1cc(Nc2cccn(-c3ccccn3)c2=O)nn2c(C(=O)N[C@@H]3C[C@@H]3F)cnc12 (2.5 µM)	0
Cc1ccn2c(C(=O)C(=O)c3ccccc3)c(-c3ccccc3)nc2c1 (10 µM)	0
COc1cc(N2CCOCC2)ccc1Nc1ncc(Cl)c(Nc2ccccc2NS(C)(=O)=O)n1 (2.5 µM)	0
O=C(NC1CCOCC1)c1ccc(-c2cc(-c3c[nH]nc3-c3ccccn3)ccn2)cc1 (10 µM)	0
O=C1NC(=O)/C(=C/c2ccc3nccc(-c4ccncc4)c3c2)S1 (10 µM)	0
Cc1ncc(NC(=O)NC2c3ccccc3-c3ccccc32)c(-c2ccccc2)n1 (10 µM)	0
CC(C)C[C@@H](C(=O)Nc1ccn(C[C@@H](O)CO)n1)N1CC(Oc2ccccc2Cl)=CC1=O [Dorzagliatin] (10 µM)	0
O=C1O[C@H]([C@@H](O)CO)C(O)=C1OP(=O)(O)O [2-Phospho-L-ascorbic acid (trisodium)] (10 µM)	0
C[C@@H]1CC(=O)c2c(ccc3c2C(=O)c2cccc(O)c2C3=O)C1 [Ochromycinone] (10 µM)	0
Cc1c(-c2ccc(C(N)=O)c3[nH]c4cc(C(C)(C)O)ccc4c23)cccc1-n1cnc2ccccc2c1=O (2.5 µM)	0
CC(C)(C)n1nc(Cc2ccccc2O)c2c(N)ncnc21 (10 µM)	0
C=CC(=O)N1C(=O)CC(c2ccc(F)cc2)Sc2ccccc21 (stereo not drawn) [GSK-3β inhibitor 3] (10 µM)	0
CCc1ccc(OCC(=O)Nc2ccc(F)c([N+](=O)[O-])c2)cc1 (10 µM)	0
CN(C)c1nc2c(Br)c(Br)c(Br)c(Br)c2[nH]1 (10 µM)	0

Look-ups from the entries so far.
In number of time points, `CCc1ccc(OCC(=O)Nc2ccc(F)c([N+](=O)[O-])c2)cc1` (10 µM) is entered as 0
In number of time points, `Cc1cccc(-c2[nH]c(C(C)(C)C)nc2-c2ccc3nccnc3c2)n1` (10 µM) is entered as 0

Next structures.

Compound	number of time points
Nc1ncnc2c1c(-c1ccc(Oc3ccccc3)cc1)nn2C1CCN(CCOCCOCCOc2ccc3c(c2)CN(C2CCC(=O)NC2=O)C3=O)CC1 (stereo not given) (2.5 µM)	0
Cc1cnc(NC2CCOCC2)nc1-n1cnc(C(=O)N[C@H](CN)c2cc(F)cc(Cl)c2)c1 (10 µM)	0
FC(F)(F)c1ccc(/C=C/c2nc(COc3ccc(CCCCn4ccnn4)cc3)co2)cc1 [Mubritinib] (10 µM)	1
Cc1cc2sc(NC(=O)Cc3ccccc3)nc2cc1Cl (10 µM)	0
O=C(CNc1cccc(Cl)c1)NC1CCCN(c2ncnc3[nH]ccc23)C1 (stereo not given) (10 µM)	0
Oc1ccc(/C=C/c2cc(O)cc(F)c2)cc1 [Resveratrol analog 1] (10 µM)	0
CC/C(=N\NC(=O)c1ccnc(NCCCN2CCOCC2)c1)c1ccc(Cl)cc1O (2.5 µM)	0
O[C@@H]1CO[C@H]2[C@@H]1OC[C@H]2Oc1nc2nc(-c3ccc(-c4ccccc4)cc3)c(Cl)cc2[nH]1 (10 µM)	1
Nc1c(C(=O)NCc2ccc(C(=O)NCCCC3CCCCC3)cc2)cnn1-c1ccccc1 (2.5 µM)	0
Cc1ccc(C(=O)Nc2sc(Nc3ccccc3)nc2C(N)=O)cc1 (10 µM)	0
COc1cc(N(C)CCN(C)C)c(N)cc1Nc1nccc(-c2cn(C)c3ccccc23)n1 [Mutated EGFR-IN-1] (10 µM)	0
CCN(CC)c1cc2oc(=O)c(-c3nc4ccccc4o3)cc2cc1C (2.5 µM)	0
Cn1cc(-c2cnc3cnn(S(=O)(=O)c4cnc5ccc(-c6cnn(C)c6)cn45)c3c2)cn1 [Glumetinib] (10 µM)	0
Cc1ccc(NC(=O)c2ccnc(C(F)(F)F)c2)cc1-c1cc(OCCO)nc(N2CCOCC2)c1 (10 µM)	0
C=CC(=O)Nc1cccc(-c2cccc3cnc(Nc4ccc(N5CCN(CCO)CC5)c(F)c4F)nc23)c1 [Olafertinib] (2.5 µM)	0
CC(C)(C[C@H](N)C(=O)O)C(F)F [NV-5138 (hydrochloride)] (10 µM)	0
Cc1cc(C)nc(NS(=O)(=O)c2ccc(NC(=S)NC(=O)COc3ccc(Br)cc3Cl)cc2)n1 (2.5 µM)	0
